Measured values published in PMC11760598.
Where two headings read alike, the source gives them in different places. Results are given in words; binding and its absence hold for the method and conditions named. In cells and extracts the contact can be indirect. A yes stands for co-enrichment or nearness to the bait. Other partners may have been found. Sequences can lack the tags named with a protein. Each block holds one molecule with its values, some of them ahead of it.

Amino acid sequences for entries named in this document (tags omitted).
UniProt Q69ZW3: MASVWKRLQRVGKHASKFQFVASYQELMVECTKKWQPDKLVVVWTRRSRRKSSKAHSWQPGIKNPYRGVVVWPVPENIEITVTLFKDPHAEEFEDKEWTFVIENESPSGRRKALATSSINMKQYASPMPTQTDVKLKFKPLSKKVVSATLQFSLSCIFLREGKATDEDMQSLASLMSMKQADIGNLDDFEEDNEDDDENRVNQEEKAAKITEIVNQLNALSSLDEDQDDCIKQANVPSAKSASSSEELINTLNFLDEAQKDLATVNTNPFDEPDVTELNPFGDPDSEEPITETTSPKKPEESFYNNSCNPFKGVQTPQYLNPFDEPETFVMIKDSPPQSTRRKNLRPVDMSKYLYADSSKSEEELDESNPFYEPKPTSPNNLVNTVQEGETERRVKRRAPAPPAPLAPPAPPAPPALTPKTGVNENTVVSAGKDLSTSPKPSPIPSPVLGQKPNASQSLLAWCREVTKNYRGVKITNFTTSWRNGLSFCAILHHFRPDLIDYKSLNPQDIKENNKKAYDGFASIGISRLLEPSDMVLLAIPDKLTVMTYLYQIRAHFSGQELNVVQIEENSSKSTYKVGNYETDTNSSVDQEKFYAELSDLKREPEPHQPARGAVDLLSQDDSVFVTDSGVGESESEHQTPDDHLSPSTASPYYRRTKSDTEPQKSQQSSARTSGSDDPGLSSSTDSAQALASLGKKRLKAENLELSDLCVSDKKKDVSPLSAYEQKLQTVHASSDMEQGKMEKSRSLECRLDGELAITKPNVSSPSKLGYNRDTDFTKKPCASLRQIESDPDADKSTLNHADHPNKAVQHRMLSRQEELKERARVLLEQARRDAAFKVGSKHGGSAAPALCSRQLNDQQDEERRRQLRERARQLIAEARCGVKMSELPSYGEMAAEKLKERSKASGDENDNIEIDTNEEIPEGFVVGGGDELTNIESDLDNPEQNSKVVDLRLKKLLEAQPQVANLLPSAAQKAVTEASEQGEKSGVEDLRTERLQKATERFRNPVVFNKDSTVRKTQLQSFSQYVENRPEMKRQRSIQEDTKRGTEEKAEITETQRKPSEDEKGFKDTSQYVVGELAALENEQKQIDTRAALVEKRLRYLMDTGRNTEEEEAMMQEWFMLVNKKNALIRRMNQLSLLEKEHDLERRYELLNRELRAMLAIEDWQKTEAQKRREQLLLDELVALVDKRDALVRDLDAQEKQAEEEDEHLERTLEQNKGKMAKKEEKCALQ

Key:
[1] = molecular target: T1, Rab10-(GGGGS)13-mBioID2-HA fusion protein (mouse) (UniProt P61027); assay: proximity labelling; BioID: NIH 3T3 Rab10-BioID2-HA cells in 50 uM biotin for 18 h, uninfected or infected with Δm138-MCMV (MOI 10; 6 hpi and 18 hpi); RIPA lysates precipitated overnight at 4°C with NeutrAvidin agarose, stringent washes (1% SDS, 500 mM NaCl, 250 mM LiCl); biotinylated proteins detected by Western blot
T1 sequence: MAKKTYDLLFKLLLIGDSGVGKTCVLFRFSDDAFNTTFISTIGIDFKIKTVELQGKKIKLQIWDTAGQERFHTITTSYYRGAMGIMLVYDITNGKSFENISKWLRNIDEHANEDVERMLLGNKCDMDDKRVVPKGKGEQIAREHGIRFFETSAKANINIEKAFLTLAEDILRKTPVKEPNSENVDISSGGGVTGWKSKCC

[2] = molecular target: T1, Rab10-(GGGGS)13-mBioID2-HA fusion protein (mouse); assay: as above; remark: listed apart in the source

B2: AS160 (protein, UniProt Q8BYJ6 1-1307)
chain: MESPSCIQDEPFPHPLEPEPSAPAQPGATKPGDKRFRLWYVGGSCLDRRTTLPMLPWLMAEIRRRSQKPDAGGCGAPAAREVILVLSAPFLRCVPAPGAGVGGGAGSGAVQPNTGVFIFEHKAQHISRFIHNSHDLTYFAYLIKAQPDDPESQMACHVFRATDPNQVPDVISSIRQLSKAAMKEDSKPSKDNEDAFYNSQKFEVLYCGRVIVTHKKAPSSLIDDCKDKFSLHEQQRLKLQGERGGDPGDEMGVLEVESPVSPDDSLPEKADGTVNSPRALPSLASLPALASQPALASSRVCFPERILEDCGFDEQQEFRSRCSSVTGVMQKKVHENNQKTQPRRRHASAPSHVQPSDSEKNRTMLFQVGRFEINLISPDTKSVVLEKNFKDISSCSQGIKHVDHFGFICRESPEPGLSQYICYVFQCANESLVDEVMLTLKQAFSTAAALQSAKTQIKLCETCPMHSLHKLCERIEGLYPPRAKLVIQRHLSSLTDNEQADIFERVQKMKPISDQEENELVILHLRQLCEAKQRTHVHIGEGPAIISNSTIPENVTSGGRFKLDVLKNKAKRSLTSSLENIFSRGANRMRGRLGSMDSFERANSLASEKDFSPGDSPPGTPPASPLSSAWHAFPEEDSDSPQFRRRAHTFSHPPSSSRRKLNLQDGKAHGLRSPLLRQSSSEQCSIVPSARRMYKESNSSCSLPSLHTSFSAPSFTAPSFLKSFYQNSGRLSPQYENEIRQDTASESSDGEGRKRTSSTCSNESLNAGGTPVTPRRVSWRQRIFLRVASPVNKSPSAMQQQKDGLDRTELLPLSPLSPTMEEEPLIIFLSGDEDTEKVEEKKKSKELKSLWKKAIHQQILLLRMEKENQKLEEARRDELQSRKVKLDYEEVGTCQKEILIAWDKKLLNCRTKIRCDMEDIHTSLKEGVPKSRRGEIWQFLALQYRLRHRLPNKHQPPDTSYKELLKQLTAQQHAILVDLGRTFPTHPYFSVQLGAGQLSLFNLLKAYSLLDKEVGYCQGISFVAGVLLLHMSEEQAFEMLKFLMYDLGFRKQYRPDMMSLQIQMYQLSRLLHDYHRELYNHLEENEISPSLYAAPWFLTLFASQFPLGFVARVFDIIFLQGTEVIFKVALSLLSSQEALIMECENFENIVEFLKSTLPDMNTTEMEKIITQVFEMDISKQLHAYEVEYHVLQDELLESSYACEDNESLEKLERANNQLKRQNMDLLEKLQVAHAKIQALESNLETLLTRETKMKALIRTLEQDKMAYQKTVEQIRKLLPADALANCELLLKDLTHPTNDKAKAGNKP
- binding [2]: binds weakly

B3: ACAP2 (protein, UniProt Q6ZQK5 1-770)
chain: MKMTVDFEECLKDSPRFRAALEEVEGDVAELELKLDKLVKLCIAMIDTGKAFCVANKQFMNGIRDLAQYSSNDAVVETSLTKFSDSLQEMINFHTILFDQTQRSIKAQLQNFVKEDLRKFKDAKKQFEKVSEEKENALVKNAQVQRNKQHEVEEAANILTATRKCFRHIALDYVLQINVLQSKRRSEILKSMLSFMYAHLAFFHQGYDLFSELGPYMKDLGAQLDRLVVDAAKEKREMEQKHSTIQQKDFSSDDSKLEYNVDAANGIVMEGYLFKRASNAFKTWNRRWFSIQNNQLVYQKKFKDSPTVVVEDLRLCTVKHCEDIERRFCFEVVSPTKSCMLQADSEKLRQAWIKAVQTSIATAYREKGDESEKLDKKSSPSTGSLDSGNESKEKLLKGESALQRVQCIPGNTSCCDCGLADPRWASINLGITLCIECSGIHRSLGVHFSKVRSLTLDTWEPELLKLMCELGNDVINRVYEAKLEKMGVKKPQPGQRQEKEAYIRAKYVERKFVDKYSALLSPSEQEKRIISKSCEDQRLSHARASVHTPVKSNDSGIQQCSEDGRESLPSTVSANSLYEPEGERQESSVFLDSKHLNPGLQLYRASYEKNLPKMAEALAHGADVNWANSDENQATPLIQAVLGGSLVTCEFLLQNGANVNQRDVQGRGPLHHATVLGHTGQVCLFLKRGANQHATDEEGKDPLSIAVEAANADIVTLLRLARMNEEMRESEGLYGQPGDETYQDIFRDFSQMASNNPEKLNRFQQDSQKF
- binding [2]: binds weakly

Continued, values first:

- binding [1]: binds
Molecule: EHBP1 (from UniProt Q69ZW3 1-1231)

- binding [2]: binds weakly
B1: Rabin8 (protein, UniProt Q68EF0 1-428)
chain: MANDPLEGFHEVNLASPTSPDLLGVCDPGTQEQTTSPSVIYRPHPSTLCAAPLQANALDLSDLPTQPVYSSPRHFNCAEVSNISAHAPDPASSVPSAVASGLTKLTSRKDSCNAEREFLQGATITEASAGNDDIFGLSTDSLSRLRSPSVLEVREKGYERLKEELAKAQREAHKMVREANVKQATAEKQLKEAQGKIDVLQAEVAALKTLVLSSSPTSPTQEPLAAAKTPFKRGHTRNKSTSSAMGGSHQDLSVIQPIVKDCKEADLSLYNEFRSWKDEPTMDRTCPFLDKIYQEDIFPCLTFAKSELASAVLEAVENNTLSIEPVGLQPIRFVKASAVECGGPKKCALTGQSKPCRHRIRLGDSSCCYYISPFCRYRITSVCNFFTYIRYIQQGLVKQQDVDQMFWEVMQLRKEMSLAKLGYFKEEL
